# Among all 360,000 compounds or so, about 7,500 (2.1%) were called active. This list was built around the results that the source calls inconclusive (neither active nor inactive); the mix of calls is not that of the screen. The call rests on the fitted dose curve; in most records, active means well fitted inhibition curve with a large enough effect; inconclusive means small, poorly fitted or top-dose-only effect, or effect the other way; inactive means flat fitted curve, though single readings scatter. A potency beside an inconclusive call is a rough fit, not a confirmed value.
# Test: Nrf2 qHTS screen for inhibitors; further: nearly all actives have a fitted effect of over 60% in size
# Conditions: A549 ARE-Fluc reporter, luciferase luminescence, 18-24 h; activity change, negative = inhibition: at 46 µM (top of the series)
# Summary of the method: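 In this cell-based qHTS, ARE-driven firefly luciferase in A549 cells reports Nrf2 activity; the luminescent signal after BugLite lysis is the measured value, with a prior CellTiter-Fluor read for cell health.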
# On the % scale 0 is the no-effect control and ±100 the full control effect; potency means the concentration at half of the fitted maximal effect.
Compound,Potency,"activity change, negative = inhibition"
CC(C)(C)[C@H]1C=C(C(=O)Nc2ccccc2)O[C@@H](OCCCCO)C1,"inconclusive: 9.2 µM [activator, partial curve]",–
CC(=O)N1c2ccc(S(=O)(=O)N3CCCC(C(=O)N4CCCCC4)C3)cc2CC1C (stereo not drawn),"inconclusive: 13 µM [falling, partial curve, poor fit]",–
O=C(Nc1ccccc1)Nc1nc2ccccc2s1,"inconclusive: 16.4 µM [activator, partial curve]",–
Cc1csc(-c2cnn(-c3ccccc3)c2NC(=O)c2ccc(C(F)(F)F)cc2)n1,"inconclusive: 29.1 µM [falling, partial curve, poor fit]",–
O=C(CCNC(=O)c1ccc(Cl)cc1)NC1CCCc2ccccc21 (stereo not drawn),"inconclusive: 5.8 µM [activator, full curve]",–
O=C(CSCc1ccccc1Cl)Nc1ccc2c(c1)OCCO2,"inconclusive: 10.3 µM [activator, partial curve, poor fit]",–
COc1ccc(C(=O)Oc2coc(CSc3nnc(NC(=O)c4cccs4)s3)cc2=O)cc1,"inconclusive: 29.1 µM [falling, single point]",–
Cn1c(SCCOc2ccccc2F)nc2ccccc2c1=O,"inconclusive: 18.4 µM [falling, partial curve, poor fit]",–
CCN(CC)c1ccc(/C=N/NC(=O)Nc2ccccc2)cc1,"inconclusive: 4.11 µM [falling, single point]",–
O=C(c1ccc(Cl)c(S(=O)(=O)N2CCOCC2)c1)N1CCN(c2ccccc2)CC1,–,inactive: -5.25%
CCOC(=O)N/N=C/c1c(F)c(F)c(F)c(F)c1F,"inconclusive: 29.1 µM [falling, single point]",–
COc1ccc(-c2c(C3C4C=CCC(C)C4C(=O)N3Cc3ccccc3)ccc3ccccc23)cc1 (stereo not drawn),active: 20.6 µM,–
COc1ccc(OC(C)C(=O)Nc2cccc(OC)c2)cc1 (stereo not drawn),"inconclusive: 0.231 µM [activator, full curve, poor fit]",–
CCC(C)NC(=O)CS(=O)Cc1nc(-c2cccc(OC)c2)oc1C (stereo not drawn),–,inactive: -23%
Cc1ccccc1NC(=O)c1cccc2c(=O)c3c([nH]c12)CCCC3,"inconclusive: 1.64 µM [activator, partial curve, poor fit]",–
CCc1ccc(C(=O)COC(=O)c2n[nH]c3ccccc23)cc1,"inconclusive: 23.1 µM [activator, single point]",–
O=C1C=C(c2ccc3ccccc3c2)C[C@@H](c2ccc(Cl)cc2)C1,"inconclusive: 14.6 µM [activator, partial curve]",–
COc1cccc(-n2c(SCC(N)=O)nnc2-c2ccco2)c1,–,inactive: -5.27%
O=C(N/N=C/c1cccnc1)c1ccccc1Br,"inconclusive: 18.4 µM [activator, partial curve, poor fit]",–
CN(C)S(=O)(=O)N1CCN(c2ccnc3cc(Cl)ccc23)CC1,"inconclusive: 14.6 µM [falling, single point]",–
CCCCNc1nc2c(c(=O)n(C)c(=O)n2C)n1CC(O)COc1ccccc1C (stereo not drawn),–,inactive: -7.76%

# Gathered by group, the entries above containing fluorine
Compound,Potency,"activity change, negative = inhibition"
Cc1csc(-c2cnn(-c3ccccc3)c2NC(=O)c2ccc(C(F)(F)F)cc2)n1,"inconclusive: 29.1 µM [falling, partial curve, poor fit]",–
Cn1c(SCCOc2ccccc2F)nc2ccccc2c1=O,"inconclusive: 18.4 µM [falling, partial curve, poor fit]",–
CCOC(=O)N/N=C/c1c(F)c(F)c(F)c(F)c1F,"inconclusive: 29.1 µM [falling, single point]",–

# Carrying on.

Compound,Potency,"activity change, negative = inhibition"
CN1CCC(=NNC(=O)C(=O)Nc2ccc(F)cc2)CC1,"inconclusive: 29.1 µM [activator, single point]",–
C/C(=C\c1ccccc1)C(=O)NCCN1CCOCC1,"inconclusive: 4.11 µM [activator, full curve]",–
CCOC(=O)c1c(C)[nH]c(C(=O)Cn2nnc(-c3ccccc3Cl)n2)c1C,"inconclusive: 35.5 µM [falling, single point]",–
CNC(=O)NC(=O)CSc1nc(-c2cccs2)c(C#N)c(=O)[nH]1,"inconclusive: 0.58 µM [falling, partial curve, poor fit]",–
O=C(NCc1ccccc1)c1cc(S(=O)(=O)N2CCCCC2)ccc1N1CCOCC1,"inconclusive: 20.6 µM [falling, single point]",–
CCOc1ccccc1-n1nnc(-c2nc(-c3ccccc3C)no2)c1C,"inconclusive: 6.51 µM [activator, single point]",–
COCCCN(C(C)=O)c1nc(-c2ccc(OC)cc2)cs1,"inconclusive: 0.92 µM [activator, partial curve, poor fit]",–
O=C(CCCN1C(=O)/C(=C/c2cccs2)SC1=S)NNC(=O)c1ccncc1,"inconclusive: 18.4 µM [activator, partial curve]",–
Cc1nnc(N/N=C/c2ccccc2F)n1N,–,inactive: 4.77%
COCCN1CN=C(Nc2nc3ccccc3o2)NC1,"inconclusive: 16.4 µM [activator, partial curve, poor fit]",–
O=S(=O)(NCc1csc(-c2cccs2)n1)c1cccc(C(F)(F)F)c1,"inconclusive: 29.1 µM [falling, single point]",–
Cc1ccc(S(=O)(=O)Nc2c(NC3CCCCC3)c3ccccc3oc2=O)c(C)c1,"inconclusive: 29.1 µM [falling, single point]",–
COc1ccccc1N1CCN(CC(=O)Nc2ccccc2C(=O)NC(C)c2ccccc2)CC1 (stereo not drawn),–,inactive: -24.7%
O=C(/C=C\Nc1ccc2c(c1)OCO2)c1cccs1,"inconclusive: 1.84 µM [activator, partial curve]",–
COc1ccccc1NCc1cccn1-c1nnc(N2CCCCCC2)s1,"inconclusive: 6.51 µM [falling, single point]",–
O=C1C(Cl)=C(Nc2ccc3cn[nH]c3c2)C(=O)c2ccccc21,"inconclusive: 29.1 µM [falling, single point]",–
O=C(CSc1nnc(-c2ccccc2Br)o1)Nc1nncs1,–,inactive: 0.141%
O=C(Cc1ccccc1)Nc1cc(C(=O)c2ccccc2)ccc1N1CCOCC1,"inconclusive: 29.1 µM [falling, single point]",–
CCCCn1c(N)c(N(CC(C)C)C(=O)CSCc2cccc(C)c2)c(=O)[nH]c1=O,"inconclusive: 1.64 µM [activator, partial curve, poor fit]",–
C=CCNC(=O)c1c(CSc2ccc(Cl)cc2)noc1C(=O)NCc1ccccc1,"inconclusive: 29.1 µM [falling, single point]",–
Cc1cc(N=NC(=O)c2ccccc2O)c2ccccc2c1O,"inconclusive: 29.1 µM [falling, single point]",–

Compound,Potency,"activity change, negative = inhibition"
CCC(C)n1ncn(-c2ccc(N3CCN(c4ccc(OCC5COC(Cn6cncn6)(c6ccc(Cl)cc6Cl)O5)cc4)CC3)cc2)c1=O (stereo not drawn),"inconclusive: 2.06 µM [falling, full curve, poor fit]",–
COc1cc(C)c(Br)cc1S(=O)(=O)NCc1ccccc1,–,inactive: -11.6%
CCOC(=O)C1=C(Nc2ccccc2)CC(C)(O)C(C(=O)OCC)C1c1ccc(Br)cc1 (stereo not drawn),"inconclusive: 18.4 µM [falling, single point]",–
O=C(Nc1ccccc1Cl)c1ccccc1Cl,"inconclusive: 13 µM [activator, partial curve]",–
O=C(Oc1ccc(O)cc1)C12CC3CC(CC(C3)C1)C2,"inconclusive: 0.259 µM [falling, partial curve, poor fit]",–
CCCCC(=O)OCc1cc(=O)n2nc(C3CCCCC3)sc2n1,"inconclusive: 18.4 µM [activator, single point]",–
COc1cccc(N2CCc3c(C)nc4ccc(Cl)cc4c32)c1,"inconclusive: 25.9 µM [falling, single point]",–
C/C(Cl)=C/Cc1c(C)[nH]c2ccc(C)cc2c1=O,"inconclusive: 29.1 µM [activator, single point]",–
Cc1cc(NC(=O)c2ccc([N+](=O)[O-])cc2Cl)no1,"inconclusive: 2.06 µM [activator, partial curve, poor fit]",–
COc1ccc(-c2ccoc2)cc1[C@H]1[C@H]2C=CC[C@@H](C)[C@@H]2C(=O)N1Cc1ccccc1,"inconclusive: 16.4 µM [falling, partial curve, poor fit]",–
CCOC(=O)N1CCc2c(sc3ncn(Cc4ccc(F)cc4)c(=O)c23)C1,"inconclusive: 29.1 µM [falling, single point]",–
Cc1n[nH]c(C)c1S(=O)(=O)N1CCCC(C(=O)NCc2ccc(F)cc2)C1 (stereo not drawn),"inconclusive: 9.2 µM [falling, partial curve, poor fit]",–
Cc1cccc(N2CCN(C(=O)c3cc(S(=O)(=O)N4CCCC4)cn3C)CC2)c1C,active: 18.4 µM,–
CCOC(=O)c1c(NC(=O)CSc2cn(CCNC(=O)c3ccc(OC)c(OC)c3)c3ccccc23)sc2c1CCCC2,"inconclusive: 13 µM [falling, partial curve, poor fit]",–
O=C(CSc1ncn[nH]1)Nc1ccc2c(c1)OCCO2,"inconclusive: 0.411 µM [activator, full curve]",–
CC(=O)N1CCN(Cc2nc3cc(NC(=O)c4cccc(Br)c4)ccc3n2C)CC1,"inconclusive: 8.2 µM [falling, partial curve]",–
CCn1ncc(C2=NOC(C(=O)Nc3ccccc3C(=O)OC)C2)c1C (stereo not drawn),"inconclusive: 18.4 µM [falling, single point]",–
CCOC(=O)N1CCN(C(=O)CN(c2cccc(Cl)c2)S(=O)(=O)c2ccccc2)CC1,"inconclusive: 29.1 µM [falling, partial curve, poor fit]",–
O=C1CCC/C1=c1\s/c(=C\c2cccnc2)c(=O)n1-c1ccccc1,"inconclusive: 14.6 µM [falling, partial curve, poor fit]",–
COc1ccc(-c2cc3ccccc3oc2=O)cc1NC(=O)c1ccc(Br)o1,"inconclusive: 3.66 µM [activator, partial curve, poor fit]",–
c1ccn2cc(CSc3nnc4ccccn34)nc2c1,"inconclusive: 1.84 µM [activator, partial curve, poor fit]",–

# Reference: PubChem BioAssay AID504444 (National Center for Advancing Translational Sciences (NCATS), 2011)
